In experiment [1] the target is T1, endogenous SEPT2 (human (endogenous in MDA-MB 231)) (UniProt Q15019).
T1 sequence: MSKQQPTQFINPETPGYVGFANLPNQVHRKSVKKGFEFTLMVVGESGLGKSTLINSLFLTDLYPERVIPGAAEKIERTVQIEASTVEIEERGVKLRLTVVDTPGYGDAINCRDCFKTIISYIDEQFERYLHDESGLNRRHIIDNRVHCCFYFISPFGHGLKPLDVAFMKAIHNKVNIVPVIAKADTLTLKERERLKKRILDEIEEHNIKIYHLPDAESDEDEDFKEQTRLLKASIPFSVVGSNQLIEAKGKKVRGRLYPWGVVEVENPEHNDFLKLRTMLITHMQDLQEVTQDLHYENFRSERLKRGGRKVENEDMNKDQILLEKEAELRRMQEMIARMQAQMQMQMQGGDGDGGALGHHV
The experiment is described as follows: co-IP; MT fractions of Tr cells incubated with rabbit anti-SEPT2 antibody on protein G sepharose beads (non-specific serum as control); 10 mM Tris pH 7.5, 150 mM NaCl, 5 mM EDTA, 1% CHAPS; 4°C, 16 h; last two washes at 300 mM salt; immunoblot.

The next experiment addresses T2, YFP-tagged TTLL11 (UniProt A4Q9F4).
T2 sequence: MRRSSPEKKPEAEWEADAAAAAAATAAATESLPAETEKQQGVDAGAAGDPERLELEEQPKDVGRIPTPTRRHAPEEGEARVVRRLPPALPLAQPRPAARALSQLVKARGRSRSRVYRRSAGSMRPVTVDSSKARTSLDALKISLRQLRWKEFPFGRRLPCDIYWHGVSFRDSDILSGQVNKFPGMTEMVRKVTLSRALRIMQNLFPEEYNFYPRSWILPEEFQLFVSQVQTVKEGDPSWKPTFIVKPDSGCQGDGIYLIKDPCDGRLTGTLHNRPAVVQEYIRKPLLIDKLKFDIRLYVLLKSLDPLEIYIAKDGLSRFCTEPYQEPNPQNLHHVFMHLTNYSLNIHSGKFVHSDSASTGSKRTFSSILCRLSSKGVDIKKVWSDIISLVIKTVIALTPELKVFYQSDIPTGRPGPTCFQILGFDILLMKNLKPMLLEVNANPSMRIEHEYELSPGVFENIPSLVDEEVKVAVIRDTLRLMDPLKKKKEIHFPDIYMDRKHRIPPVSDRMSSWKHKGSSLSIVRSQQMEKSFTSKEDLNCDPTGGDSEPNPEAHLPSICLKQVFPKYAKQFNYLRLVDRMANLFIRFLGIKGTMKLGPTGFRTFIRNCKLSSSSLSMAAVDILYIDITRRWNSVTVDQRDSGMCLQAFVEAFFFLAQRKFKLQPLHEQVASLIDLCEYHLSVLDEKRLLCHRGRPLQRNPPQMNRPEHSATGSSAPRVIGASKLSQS
Description: co-IP; MT fractions (MTs depolymerized by calcium) of transfected Tr cells incubated with anti-GFP/YFP-coated beads (GFP Trap_M); 10 mM Tris pH 7.5, 150 mM NaCl, 5 mM EDTA, 1% CHAPS; 4°C, 16 h; last two washes at 300 mM salt; immunoblot.

These are yes or no findings as the source states them, for the method shown. Binding seen in cells or lysates may run through a third protein. A result given as binding can be weak or reduced; the word gives no strength. For some assays here: Sequences can lack the tags named with a protein.

CCP1 (enzyme): the binding result in experiment [1] was “binds”.

In the case of “α-tubulin (human (endogenous in MDA-MB 231))”, in the experiment with YFP-tagged TTLL11, the binding entry is on record as “binds weakly”.

These data come from article PMC4742162.
